These are yes or no findings as the source states them, for the method shown. In cells and extracts the contact can be indirect. Binding calls can cover weak binding; strength is not graded here. Tags and fused reporters may be left off the sequences shown.
Molecular target: T1, Dmo2p with its C-terminal fused to protein C epitope followed by polyhistidine (Dmo2p-CH) (S. cerevisiae) (UniProt Q12082)
T1 sequence: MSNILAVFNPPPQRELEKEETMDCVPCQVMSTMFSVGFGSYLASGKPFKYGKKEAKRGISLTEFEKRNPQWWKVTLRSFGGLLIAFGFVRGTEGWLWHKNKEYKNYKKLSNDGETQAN
Test: co-IP

Question: “Sco1p (S. cerevisiae (endogenous in W303))” was tested. Which binding did it give?
Answer: binds

Question: For “Sco2p (S. cerevisiae (endogenous in W303))”, which binding is on record?
Answer: binds

Source: paper doi:10.1101/2023.06.12.544600
